{"source": "PubChem BioAssay AID652272 (Drosophila RNAi Screening Center, 2013)", "aim": "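Finding fly genes that regulate Hedgehog signal transduction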 (primary screen)", "system": "Drosophila clone 8 (Cl8) cells", "reagents": "long dsRNA against Drosophila genes", "detection": "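Plate reader light from a firefly reporter under a ptc promoter fragment that responds to Hedgehog, with Renilla light as transfection reference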", "reading the numbers": "firefly Hh reporter signal: higher = more ptc reporter light; Renilla reference signal: higher = more Renilla control light", "active means": "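Hit when the z-score averaged over two replicates is under -2 or over +3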", "calls": "active = hit: reporter lowered or raised; inactive = not a hit", "note": "In all, the deposit lists about 21,000 reagents; this is a random part of those with a known target gene and a result. Of all reagents, 503 (2.4%) got an active call. 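Raw plate light values, not normalised; calls rest on replicate z-scores that were not deposited; hits include reporter decreases as well as increases.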 Not stated in the record: the amount of reagent, the time to read-out."}
{"gene knocked down": "FANCI", "dsRNA": "DRSC06416", "firefly Hh reporter signal, replicate 1": 90640, "firefly Hh reporter signal, replicate 2": 68688, "Renilla reference signal, replicate 1": 2242, "Renilla reference signal, replicate 2": 5561, "call": "inactive"}
{"gene knocked down": "GCS2alpha", "dsRNA": "DRSC21036", "firefly Hh reporter signal, replicate 1": 67089, "firefly Hh reporter signal, replicate 2": 2.19e5, "Renilla reference signal, replicate 1": 1382, "Renilla reference signal, replicate 2": 9307, "call": "inactive"}
{"gene knocked down": "Or59c", "dsRNA": "DRSC04633", "firefly Hh reporter signal, replicate 1": 68680, "firefly Hh reporter signal, replicate 2": 45937, "Renilla reference signal, replicate 1": 1930, "Renilla reference signal, replicate 2": 3981, "call": "inactive"}
{"gene knocked down": "CG9550", "dsRNA": "DRSC03262", "firefly Hh reporter signal, replicate 1": 1.22e5, "firefly Hh reporter signal, replicate 2": 74944, "Renilla reference signal, replicate 1": 2794, "Renilla reference signal, replicate 2": 6585, "call": "inactive"}
{"gene knocked down": "hll", "dsRNA": "DRSC01944", "firefly Hh reporter signal, replicate 1": 37360, "firefly Hh reporter signal, replicate 2": 48776, "Renilla reference signal, replicate 1": 2326, "Renilla reference signal, replicate 2": 3100, "call": "inactive"}
{"gene knocked down": "CG11583", "dsRNA": "DRSC08202", "firefly Hh reporter signal, replicate 1": 98834, "firefly Hh reporter signal, replicate 2": 59720, "Renilla reference signal, replicate 1": 5818, "Renilla reference signal, replicate 2": 3584, "call": "active"}
{"gene knocked down": "CG12439", "dsRNA": "DRSC02168", "firefly Hh reporter signal, replicate 1": 64131, "firefly Hh reporter signal, replicate 2": 69290, "Renilla reference signal, replicate 1": 1561, "Renilla reference signal, replicate 2": 5384, "call": "inactive"}
{"gene knocked down": "Saysd1", "dsRNA": "DRSC14664", "firefly Hh reporter signal, replicate 1": 5.14e5, "firefly Hh reporter signal, replicate 2": 99760, "Renilla reference signal, replicate 1": 25772, "Renilla reference signal, replicate 2": 6872, "call": "inactive"}
{"gene knocked down": "CG7992", "dsRNA": "DRSC20070", "firefly Hh reporter signal, replicate 1": 72784, "firefly Hh reporter signal, replicate 2": 1.48e5, "Renilla reference signal, replicate 1": 2144, "Renilla reference signal, replicate 2": 6179, "call": "inactive"}
{"gene knocked down": "CG13526", "dsRNA": "DRSC04168", "firefly Hh reporter signal, replicate 1": 91286, "firefly Hh reporter signal, replicate 2": 58806, "Renilla reference signal, replicate 1": 2071, "Renilla reference signal, replicate 2": 5399, "call": "inactive"}
{"gene knocked down": "Cadps", "dsRNA": "DRSC21057", "firefly Hh reporter signal, replicate 1": 62048, "firefly Hh reporter signal, replicate 2": 1.75e5, "Renilla reference signal, replicate 1": 1221, "Renilla reference signal, replicate 2": 7576, "call": "inactive"}
{"gene knocked down": "Cog6", "dsRNA": "DRSC06806", "firefly Hh reporter signal, replicate 1": 79257, "firefly Hh reporter signal, replicate 2": 51061, "Renilla reference signal, replicate 1": 3168, "Renilla reference signal, replicate 2": 2018, "call": "inactive"}

Next part, starting with the last 3 of the part before.
{"gene knocked down": "CG13526", "dsRNA": "DRSC04168", "firefly Hh reporter signal, replicate 1": 91286, "firefly Hh reporter signal, replicate 2": 58806, "Renilla reference signal, replicate 1": 2071, "Renilla reference signal, replicate 2": 5399, "call": "inactive"}
{"gene knocked down": "Cadps", "dsRNA": "DRSC21057", "firefly Hh reporter signal, replicate 1": 62048, "firefly Hh reporter signal, replicate 2": 1.75e5, "Renilla reference signal, replicate 1": 1221, "Renilla reference signal, replicate 2": 7576, "call": "inactive"}
{"gene knocked down": "Cog6", "dsRNA": "DRSC06806", "firefly Hh reporter signal, replicate 1": 79257, "firefly Hh reporter signal, replicate 2": 51061, "Renilla reference signal, replicate 1": 3168, "Renilla reference signal, replicate 2": 2018, "call": "inactive"}
{"gene knocked down": "Sr-CIV", "dsRNA": "DRSC00575", "firefly Hh reporter signal, replicate 1": 1.36e5, "firefly Hh reporter signal, replicate 2": 59168, "Renilla reference signal, replicate 1": 3504, "Renilla reference signal, replicate 2": 6464, "call": "inactive"}
{"gene knocked down": "Vha100-3", "dsRNA": "DRSC05760", "firefly Hh reporter signal, replicate 1": 92122, "firefly Hh reporter signal, replicate 2": 1.67e5, "Renilla reference signal, replicate 1": 2661, "Renilla reference signal, replicate 2": 7050, "call": "inactive"}
{"gene knocked down": "CG34353", "dsRNA": "DRSC14493", "firefly Hh reporter signal, replicate 1": 99511, "firefly Hh reporter signal, replicate 2": 1.32e5, "Renilla reference signal, replicate 1": 1588, "Renilla reference signal, replicate 2": 4540, "call": "inactive"}
{"gene knocked down": "CG34353", "dsRNA": "DRSC14517", "firefly Hh reporter signal, replicate 1": 91674, "firefly Hh reporter signal, replicate 2": 1.55e5, "Renilla reference signal, replicate 1": 3360, "Renilla reference signal, replicate 2": 5537, "call": "inactive"}
{"gene knocked down": "CG34353", "dsRNA": "DRSC14563", "firefly Hh reporter signal, replicate 1": 1.56e5, "firefly Hh reporter signal, replicate 2": 1.34e5, "Renilla reference signal, replicate 1": 5888, "Renilla reference signal, replicate 2": 3981, "call": "inactive"}
{"gene knocked down": "CG34353", "dsRNA": "DRSC15837", "firefly Hh reporter signal, replicate 1": 1.30e5, "firefly Hh reporter signal, replicate 2": 1.24e5, "Renilla reference signal, replicate 1": 4753, "Renilla reference signal, replicate 2": 3746, "call": "inactive"}
{"gene knocked down": "CG15930", "dsRNA": "DRSC18107", "firefly Hh reporter signal, replicate 1": 62992, "firefly Hh reporter signal, replicate 2": 1.92e5, "Renilla reference signal, replicate 1": 1770, "Renilla reference signal, replicate 2": 7745, "call": "inactive"}
{"gene knocked down": "nonA", "dsRNA": "DRSC20357", "firefly Hh reporter signal, replicate 1": 63084, "firefly Hh reporter signal, replicate 2": 3.12e5, "Renilla reference signal, replicate 1": 2217, "Renilla reference signal, replicate 2": 13222, "call": "inactive"}
{"gene knocked down": "Pdzd8", "dsRNA": "DRSC19355", "firefly Hh reporter signal, replicate 1": 56212, "firefly Hh reporter signal, replicate 2": 2.26e5, "Renilla reference signal, replicate 1": 2505, "Renilla reference signal, replicate 2": 11960, "call": "inactive"}
